This test can be described thus: qHTS Assay to Find Inhibitors of Chronic Active B-Cell Receptor Signaling. The settings on record: ABC-DLBCL IkBa-CBG/CBR reporter, luminescence ratio (green luciferase fused to IkBa over red control in TMD8 lymphoma cells), 4 h. In short, it runs like this:
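Doxycycline induced both beetle luciferases in TMD8 lymphoma cells; IKK-driven degradation limits the IkappaBalpha-fused green signal, while red luminescence normalises for cell number and nonspecific effects. Compounds tested up to 46 uM, 4 hrs.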

Where [1] appears, read: measured here: CBR red luminescence, cell number.
[2] abbreviates: measured here: IkBa-CBG green luminescence.

Some of the results follow. The main result of the screen is listed elsewhere. These columns were measured beside it and carry no call. Compounds called inactive in the main read-out are mostly missing here. Potencies come from curve fits of mixed quality, noted in brackets.

In the case of `Cc1cc(O)c(C(C[N+](=O)[O-])c2ccc(Cl)cc2Cl)c(=O)o1` (stereo unspecified), the AC50 under setting [1] is 29.1 µM [falling, single point].

For the molecule `CCC1=Nc2cc(C(=O)NCc3ccco3)ccc2Sc2ccc(C)cc21`, the concentration at half-maximal activity (AC50) by setting is: under setting [1], 3.26 µM [rising, full curve]; under setting [2], 1.64 µM [falling, full curve].

With `COc1ccccc1/C=C1\CCC(C2CCCC2)C1=O` (stereo unspecified), the concentration at half-maximal activity (AC50) under setting [1] was 12.6 µM [falling, partial curve, poor fit].

`CCN(C(=O)COC(=O)c1cc(-c2ccc(C)o2)nc2ccccc12)C1CCS(=O)(=O)C1` (stereo unspecified): under setting [1], the half-maximal activity concentration (AC50) is 25.1 µM [falling, single point].

Consider `CCN(CC)CCC(=O)N1c2ccccc2CCc2ccc(NC(=O)OC(C)C)cc21`, for which the half-maximal activity concentration (AC50) under setting [1] is 15.8 µM [falling, single point].

Take `C/C(CC(=O)N1CCN(C=O)CC1)=N\NC(=O)c1ccc([N+](=O)[O-])cc1`: the AC50 under setting [1] was 11.2 µM [rising, single point].

With `O=C(NC(=S)Nc1ccccn1)c1ccccc1`, the AC50 by setting is: under setting [1], 12.6 µM [falling, partial curve]; under setting [2], 22.4 µM [falling, single point].

Turning to `COc1cccc(/C=C/c2ccc3cccc(O)c3n2)c1`, the concentration at half-maximal activity (AC50) reads like this: under setting [1], 35.5 µM [falling, single point]; under setting [2], 31.6 µM [falling, single point].

On to `Cc1onc(-c2ccccc2)c1C(=O)Nc1cccc(OC(C)C)c1`, for which the AC50 under setting [1] was 6.51 µM [falling, single point].

Take `N#Cc1c(-c2cccs2)nc(SCC(=O)c2cccs2)[nH]c1=O`: the AC50 under setting [1] was 0.891 µM [falling, full curve].

For the molecule `CCN(CC)C(=O)c1ccc(Oc2ccc([N+](=O)[O-])cc2Cl)cc1`, the AC50 under setting [1] was 25.1 µM [falling, single point].

For the molecule `Cc1ccccc1N1CCN(S(=O)(=O)Cc2ccccc2)CC1`, the concentration at half-maximal activity (AC50) under setting [1] was 22.4 µM [rising, single point].

`O=S(=O)(Nc1cccc(-c2nc3cccnc3s2)c1)c1ccc2c(c1)OCCO2`: the half-maximal activity concentration (AC50) under setting [1] was 16.4 µM [falling, partial curve, poor fit].

`CCOC(=O)C1CCN(c2nc(C)nc3c2oc2ccccc23)CC1`: the AC50 under setting [1] was 35.5 µM [falling, single point].

`CC(=O)c1ccc(N/N=C2/CCCNC2=O)cc1`: the AC50 under setting [1] is 0.355 µM [rising, full curve, poor fit].

Consider `Cc1cc(C)nc(SCc2cn3c(C)cc(C)nc3n2)n1`, for which the half-maximal activity concentration (AC50) under setting [1] is 6.31 µM [rising, partial curve, poor fit].

With `COc1ccc(OCCCC(=O)Oc2ccc(OC)cc2)cc1`, the concentration at half-maximal activity (AC50) under setting [1] is 7.31 µM [rising, full curve, poor fit].

Take `Cc1ccc(N2CCN(c3ccc(C)cc3)C2c2cccnc2)cc1`: the concentration at half-maximal activity (AC50) under setting [1] is 23.1 µM [rising, single point].

As to `O=C(O)c1cccc(N2C(=S)N=C(Nc3ccccc3)C23CCCCC3)c1`, the concentration at half-maximal activity (AC50) under setting [1] is 14.1 µM [rising, partial curve, poor fit].

Turning to `Cc1ccc2nc(S(=O)(=O)O)[nH]c2c1`, the AC50 under setting [1] is 20 µM [rising, single point].

On to `Cc1ccc(S(=O)(=O)N2CCCCC2CCNC(=O)C(=O)NC2CC2)cc1` (stereo unspecified), for which the AC50 under setting [1] is 0.461 µM [falling, full curve, poor fit].

On to `COc1ccc(-n2nc3cc(C)c(NC(=O)c4cccnc4)cc3n2)cc1`, for which the AC50 under setting [1] was 16.4 µM [falling, partial curve, poor fit].

For the molecule `S=C(Nc1cccc(Cl)c1)N1CCOCC1`, the AC50 under setting [1] was 16.4 µM [rising, partial curve, poor fit].

`Nc1nonc1-n1nnc(C(=O)N/N=C/c2cccs2)c1CSc1ccccc1`: under setting [1], the AC50 was 7.08 µM [falling, partial curve, poor fit].

As to `Cc1ccc(S(=O)(=O)/C(C#N)=C/c2c(N3CCC(C(N)=O)CC3)nc3ccccn3c2=O)cc1`, the AC50 under setting [1] was 2.91 µM [falling, partial curve, poor fit].

As for `O=C(O)CCC(=O)N1CCN(c2nc(-c3ccccc3Cl)c3cc(Br)ccc3n2)CC1`, the half-maximal activity concentration (AC50) under setting [1] is 1.78 µM [falling, partial curve, poor fit].

For `Cc1cccc2nc(COc3ccc(-c4ccccc4)cc3)cn12`, the AC50 under setting [1] is 35.5 µM [rising, single point].

In the case of `NC(=O)c1ccccc1OCCOc1ccc(Br)cc1`, under setting [1], the AC50 was 11.2 µM [falling, partial curve, poor fit].

For `C/C(=N\NC(=O)c1ccccc1)c1ccccc1F`, the concentration at half-maximal activity (AC50) under setting [1] was 8.91 µM [falling, partial curve].

For the molecule `O=C(NC1CCCC1)C(c1ccncc1)N(Cc1ccccc1)C(=O)c1ccc(-c2ccccc2)[nH]1` (stereo unspecified), under setting [1], the AC50 was 29.1 µM [falling, single point].

For the molecule `CCOC(=O)Cc1csc(NC(=O)C2CCCN(S(=O)(=O)c3cnc[nH]3)C2)n1` (stereo unspecified), the half-maximal activity concentration (AC50) under setting [1] was 29.1 µM [falling, single point].

Turning to `CCc1ccc(NC(=O)C(=O)NCCc2sc3nc(-c4ccc(OC)cc4)nn3c2C)cc1`, the concentration at half-maximal activity (AC50) under setting [1] was 0.0891 µM [falling, full curve, poor fit].

As to `Cc1ccc(/C(O)=C/c2nc3ccccc3oc2=O)cc1`, under setting [1], the AC50 was 7.08 µM [falling, full curve, poor fit].

`COc1ccc(C2N(c3cc(Cl)ccc3OC)C(=O)C3CCCN32)c(OC)c1` (stereo unspecified): under setting [1], the AC50 was 0.103 µM [falling, full curve, poor fit].

Consider `O=C(Nc1cccc(-c2ccc(N3CCCCC3)nn2)c1)c1ccco1`, for which, under setting [1], the half-maximal activity concentration (AC50) was 23.1 µM [falling, single point].

For the molecule `COC(=O)c1[nH]c2ccc(F)cc2c1NC(=O)CCN1CCN(Cc2ccc3c(c2)OCO3)CC1`, the half-maximal activity concentration (AC50) under setting [1] was 15.8 µM [rising, partial curve, poor fit].

With `O=C(Cc1ccccc1)c1ccc(Cl)cc1`, the AC50 under setting [1] is 11.2 µM [rising, partial curve, poor fit].

As to `Cc1csc(-c2cnn(-c3ccccc3)c2NC(=O)c2cccc(C(F)(F)F)c2)n1`, under setting [1], the AC50 was 23.1 µM [falling, single point].

With `O=C(Nc1cccc(NC(=O)c2ccccc2Cl)c1)c1cccs1`, under setting [1], the AC50 is 17.8 µM [falling, single point].

In the case of `Cc1nonc1NC(=O)CSc1nc2c(C)cccc2cc1C#N`, the AC50 under setting [1] was 8.91 µM [falling, partial curve].

Regarding `COc1cccc(NC(=O)c2ccccc2NS(C)(=O)=O)c1`, the concentration at half-maximal activity (AC50) under setting [1] is 0.00461 µM [falling, full curve, poor fit].

As for `C[C@@H]1C[C@H]2[C@@H]3CCC4=CC(=O)C=C[C@]4(C)[C@@]3(F)[C@@H](O)C[C@]2(C)[C@@]1(O)C(=O)COP(=O)(O)O`, the AC50 under setting [2] was 0.103 µM [falling, full curve, poor fit].

In the case of `CNc1nc(C)c(C(=O)OCc2ccccc2)s1`, the AC50 under setting [1] is 16.4 µM [rising, partial curve, poor fit] and the half-maximal activity concentration (AC50) under setting [2] was 18.4 µM [falling, partial curve, poor fit].

Regarding `Nc1ccc(Oc2ccc(F)cc2)nc1`, the concentration at half-maximal activity (AC50) under setting [1] is 12.6 µM [rising, partial curve, poor fit].

For the molecule `O=C1NCCCCC1NS(=O)(=O)c1cccc(C(F)(F)F)c1` (stereo unspecified), the AC50 under setting [1] is 35.5 µM [rising, single point].

Turning to `CCc1cccc(CC)c1NC(=O)COC(=O)c1ccccc1-c1nc2ccccc2s1`, the AC50 under setting [1] was 4.11 µM [rising, single point].

On to `CCCCN(C(=O)c1oc2ccc(OCC)cc2c1C)c1c(N)n(CCCC)c(=O)[nH]c1=O`, for which, under setting [1], the AC50 is 29.1 µM [rising, single point].

For `CCOC(=O)[C@H](CCc1ccccc1)N[C@@H](C)C(=O)N1C(C(=O)O)C[C@@H]2CCC[C@@H]21` (stereo partly specified), the AC50 under setting [1] is 0.231 µM [rising, full curve, poor fit].

`O=C(CSc1nc2ccccc2s1)Nc1ccc(Cl)c(C(=O)O)c1`: the half-maximal activity concentration (AC50) under setting [1] is 22.4 µM [falling, single point].

As to `O=C(N/N=C/c1cccs1)c1cccc(NC(=O)c2ccccc2Cl)c1`, under setting [1], the AC50 is 23.1 µM [falling, partial curve, poor fit].

In the case of `O=C(CN1C(=O)NC2(CCCC2)C1=O)OCc1ccc(Cl)cc1Cl`, the half-maximal activity concentration (AC50) under setting [1] is 29.1 µM [rising, single point].

For the molecule `Cc1cc2cc(CNC(=O)COc3ccccc3)ccc2n1C`, the half-maximal activity concentration (AC50) under setting [1] is 7.94 µM [rising, partial curve, poor fit].

For the molecule `Cc1ccc(S(=O)(=O)N(CC(=O)O)Cc2ccccc2F)cc1`, the AC50 is, setting by setting: under setting [1], 6.51 µM [falling, single point]; under setting [2], 6.51 µM [rising, partial curve, poor fit].

In the case of `CCC1(C)Cc2ccccc2-c2nc3n(c(=O)c21)CCCCC3` (stereo unspecified), the concentration at half-maximal activity (AC50) under setting [1] was 6.51 µM [falling, single point].

With `O=C(COC(=O)c1ccccc1Nc1cccc(C(F)(F)F)c1)NCc1ccco1`, under setting [1], the concentration at half-maximal activity (AC50) was 2.82 µM [rising, single point].

`Cc1ccc(N2C(=O)NC(NC(=O)C3CC3)(C(F)(F)F)C2=O)cc1` (stereo unspecified): the concentration at half-maximal activity (AC50) under setting [1] was 29.1 µM [rising, single point].

`Cc1ccccc1-c1nc(P(=O)(c2ccccc2)c2ccccc2)c(N2CCOCC2)o1`: under setting [1], the AC50 is 0.891 µM [falling, partial curve, poor fit].

Consider `CNC(=S)N1N=C(c2ccc(C)cc2)CC1c1ccc(OC)c(OC)c1` (stereo unspecified), for which, under setting [1], the concentration at half-maximal activity (AC50) was 29.1 µM [rising, single point].

Turning to `COc1cccc(OC)c1C(=O)NC(=S)Nc1ccc(S(=O)(=O)Nc2nccs2)cc1`, the AC50 under setting [1] was 22.4 µM [falling, partial curve].

As to `CCCC(C)C(=O)Nc1nc(C)c(-c2csc(Nc3cc(OC)ccc3OC)n2)s1` (stereo unspecified), under setting [1], the AC50 is 1.41 µM [falling, full curve, poor fit].

In the case of `Cc1ccc(O)c(NC(=O)c2onc(C)c2Cl)c1`, the half-maximal activity concentration (AC50) under setting [1] was 12.6 µM [rising, partial curve, poor fit].

For the origin of these results see PubChem BioAssay AID493014 (National Center for Advancing Translational Sciences (NCATS), 2011).
